According to doi:10.1101/824425:
Numbering of substitutions follows the chain as printed. No constants are given. Whether binding was seen depends on the method and setting. For some assays here: Binding seen in cells or lysates may run through a third protein. Some binding calls cover weakened binding; strength is not graded here. For some assays here: Tags and fused reporters may be left off the sequences shown. Values belong to the binder of their own block, whether it stands above or below them.

Legend:
Assay in all cases: co-IP
[1] = molecular target: T1, Myc-tagged HADHB (β-subunit of the mitochondrial trifunctional protein) (human), P55084; conditions: remark: other sources report otherwise
T1 chain: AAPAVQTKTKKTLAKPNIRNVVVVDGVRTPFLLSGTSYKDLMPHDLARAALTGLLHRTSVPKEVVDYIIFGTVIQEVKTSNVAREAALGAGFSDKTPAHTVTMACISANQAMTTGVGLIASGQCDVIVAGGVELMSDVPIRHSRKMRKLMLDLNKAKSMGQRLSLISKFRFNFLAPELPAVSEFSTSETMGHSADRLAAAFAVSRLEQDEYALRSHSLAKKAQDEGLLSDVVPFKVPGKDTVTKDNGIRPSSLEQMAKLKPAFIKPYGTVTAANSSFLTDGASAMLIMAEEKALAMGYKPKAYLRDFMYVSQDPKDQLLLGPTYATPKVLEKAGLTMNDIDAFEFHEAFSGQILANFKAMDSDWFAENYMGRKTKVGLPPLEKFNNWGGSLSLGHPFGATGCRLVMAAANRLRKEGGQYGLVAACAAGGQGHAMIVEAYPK

[2] = molecular target: T2, Myc-tagged HADHB (β-subunit of the mitochondrial trifunctional protein) (human) (UniProt P55084)
T2 sequence: T1 chain

[3] = molecular target: T3, Purified, recombinantly-expressed human HADHB (AdooQ Bioscience AP4092) (human) (UniProt P55084)
T3 sequence: T1 chain

B2: FLAG-MLS-viperin (residues 1-42 of viperin replaced by the mitochondrial localization sequence of human Tom70, residues 35-68) (enzyme, UniProt O94826 35-68; Q8WXG1 43-361)
chain: GLPRWQLALAVGAPLLLGAGAIYLWSRQQRRREAATKRRKQQLVLRGPDETKEEEEDPPLPTTPTSVNYHFTRQCNYKCGFCFHTAKTSFVLPLEEAKRGLLLLKEAGMEKINFSGGEPFLQDRGEYLGKLVRFCKVELRLPSVSIVSNGSLIRERWFQNYGEYLDILAISCDSFDEEVNVLIGRGQGKKNHVENLQKLRRWCRDYRVAFKINSVINRFNVEEDMTEQIKALNPVRWKVFQCLLIEGENCGEDALREAERFVIGDEEFERFLERHKEVSCLVPESNQKMKDSYLILDEYMRFLNCRKGRKDPSKSILDVGVEEAIKFSGFDEKMFLKRGGKYIWSKADLKLDW
binding [2]: binds

B3: FLAG-MLS-viperinC83A (enzyme, UniProt O94826 35-68; Q8WXG1 43-361)
chain: B2 chain with C75A
binding [2]: binds

Second part, the binder after the results:

binding [1]: no binding
B1: WT-viperin (localizes to the ER membrane), Q8WXG1 1-361 (enzyme)
chain: MWVLTPAAFAGKLLSVFRQPLSSLWRSLVPLFCWLRATFWLLATKRRKQQLVLRGPDETKEEEEDPPLPTTPTSVNYHFTRQCNYKCGFCFHTAKTSFVLPLEEAKRGLLLLKEAGMEKINFSGGEPFLQDRGEYLGKLVRFCKVELRLPSVSIVSNGSLIRERWFQNYGEYLDILAISCDSFDEEVNVLIGRGQGKKNHVENLQKLRRWCRDYRVAFKINSVINRFNVEEDMTEQIKALNPVRWKVFQCLLIEGENCGEDALREAERFVIGDEEFERFLERHKEVSCLVPESNQKMKDSYLILDEYMRFLNCRKGRKDPSKSILDVGVEEAIKFSGFDEKMFLKRGGKYIWSKADLKLDW

binding [3]: binds
B4: ΔN-viperin (viperin lacking the first 50 residues, the N-terminal amphipathic helix) (enzyme, UniProt Q8WXG1 51-361)
chain: LVLRGPDETKEEEEDPPLPTTPTSVNYHFTRQCNYKCGFCFHTAKTSFVLPLEEAKRGLLLLKEAGMEKINFSGGEPFLQDRGEYLGKLVRFCKVELRLPSVSIVSNGSLIRERWFQNYGEYLDILAISCDSFDEEVNVLIGRGQGKKNHVENLQKLRRWCRDYRVAFKINSVINRFNVEEDMTEQIKALNPVRWKVFQCLLIEGENCGEDALREAERFVIGDEEFERFLERHKEVSCLVPESNQKMKDSYLILDEYMRFLNCRKGRKDPSKSILDVGVEEAIKFSGFDEKMFLKRGGKYIWSKADLKLDW

binding [3]: binds
B5: ΔN-viperinC83A (enzyme, UniProt Q8WXG1 51-361)
chain: B4 chain with C33A
